Values of other authors, collected in US20170027865A1, “Dry Pharmaceutical Compositions for Topical Delivery of Oral Medications, Nasal Delivery and to Treat Ear Disorders” (CMPD LICENSING LLC, priority 2013, published 2017).

System: Mycoplasma pneumoniae
Details: Gram: n/a

## O=C(O)c1cn(C2CC2)c2cc(N3CCNCC3)c(F)cc2c1=O [Ciprofloxacin, ciprofloxacin]
  Expected coverage: yes
